# Assay results reported in patent US20020132845A1, “Compositions and methods for the prevention and treatment of tissue ischemia” (priority 2000, published 2002).
# Some entries share one result that the patent states for a list of compounds.
# Test system: primary hippocampal neuronal cells
# Assay: Cell injury assay: anoxia-reoxygenation in cultured primary hippocampal neuronal cells
# Type: cell-based, rat
# Details: primary hippocampal cell model
smiles,measurement,value
"Cc1c(O)cc2c(c1C)OC(C)(CCC(=O)O)CC2 (stereo not shown) [gamma-CEHC, 6-hydroxy-2,7,8-trimethylchroman-2-propanoic acid]",protection against hippocampal cell injury,at least 40%
